Source: PubChem BioAssay AID743454 (Peter MacCallum Cancer Centre, 2014)
Aim: 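Search for knock-downs that restore vorinostat killing in resistant colon cancer cells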 (primary screen). System: human HCT116-VR colon cancer cells, selected for vorinostat resistance. Reagents: siRNA pool against human genes, 40 nM siRNA pool. Timing: vorinostat for 24 h, read-out about 72 h after transfection. Conditions: vorinostat at 2.5 µM final. Detection: 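Cell viability by CellTiter-Fluor and caspase 3/7 activity by luminescence, each scaled to mock wells per plate, duplicates averaged, then robust z-scored over all plates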. Reading the numbers: viability robust z-score: higher = more viable cells than screen typical; caspase robust z-score: higher = more caspase 3/7 activity than screen typical. Hit rule: 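a knock-down is a hit when classed RV1 or RV2 for lowered viability, or CA1 or CA2 for caspase activation; those lethal without drug were dropped; hits were retested singly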.
Here is an unselected part of about 18,000 reagents tested. Of all reagents, 450 (2.5%) were called active. 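Single biological run; no consistent viability z cut-off exists, so the class columns, not z-scores, define the calls.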

gene symbol | viability hit class | caspase hit class | viability robust z-score | caspase robust z-score | Outcome
KRTAP13-1 (keratin associated protein 13-1) | no change | no change | 1.63 | 1.73 | inactive
TPRX1 (tetrapeptide repeat homeobox 1) | no change | no change | 0.46 | -0.26 | inactive
ELAVL2 (ELAV like RNA binding protein 2) | no change | no change | 0.78 | 0.25 | inactive
SPMIP8 (sperm microtubule inner protein 8) | no change | no change | 0.43 | -0.46 | inactive
ANP32D (acidic nuclear phosphoprotein 32 family member D) | no change | no change | -1.04 | -0.01 | inactive
TAS2R13 (taste 2 receptor member 13) | no change | no change | 0.84 | -0.17 | inactive
SLC35F4 | no change | no change | -0.16 | -0.66 | inactive
MAP2K5 (mitogen-activated protein kinase kinase 5) | no change | no change | 1.12 | -0.98 | inactive
GPR37L1 (G protein-coupled receptor 37 like 1) | no change | no change | -0.63 | 1.69 | inactive
FFAR1 (free fatty acid receptor 1) | no change | no change | 0.8 | 0.48 | inactive
PTRH2 (peptidyl-tRNA hydrolase 2) | no change | no change | 0.97 | 0.28 | inactive
COBLL1 (cordon-bleu WH2 repeat protein like 1) | no change | no change | -0.15 | -0.66 | inactive
KCNJ6 (potassium inwardly rectifying channel subfamily J member 6) | no change | no change | -4.88 | 4.74 | inactive
SAMD7 (sterile alpha motif domain containing 7) | no change | no change | 1.11 | -0.12 | inactive
USP43 (ubiquitin specific peptidase 43) | no change | no change | -0.5 | 0.08 | inactive
GTF3C2 (general transcription factor IIIC subunit 2) | no change | no change | 0.11 | 1.82 | inactive

Laid out differently: 3 of the entries above.
{"gene symbol":"SAMD7 (sterile alpha motif domain containing 7)","viability hit class":"no change","caspase hit class":"no change","viability robust z-score":1.11,"caspase robust z-score":-0.12,"Outcome":"inactive"}
{"gene symbol":"USP43 (ubiquitin specific peptidase 43)","viability hit class":"no change","caspase hit class":"no change","viability robust z-score":-0.5,"caspase robust z-score":0.08,"Outcome":"inactive"}
{"gene symbol":"GTF3C2 (general transcription factor IIIC subunit 2)","viability hit class":"no change","caspase hit class":"no change","viability robust z-score":0.11,"caspase robust z-score":1.82,"Outcome":"inactive"}

The list goes on:
gene symbol | viability hit class | caspase hit class | viability robust z-score | caspase robust z-score | Outcome
TBX19 (T-box transcription factor 19) | no change | no change | 1.03 | -0.08 | inactive
IGSF11 (immunoglobulin superfamily member 11) | no change | no change | 0.26 | -0.05 | inactive
ANKRD35 (ankyrin repeat domain 35) | no change | no change | -0.52 | -0.84 | inactive
STIL (STIL centriolar assembly protein) | no change | no change | -0.88 | 1.04 | inactive
CRELD1 (CRELD disulfide isomerase 1) | no change | no change | 1.54 | -0.55 | inactive
NDUFS7 (NADH:ubiquinone oxidoreductase core subunit S7) | no change | no change | -0.33 | 0.66 | inactive
NRAP (nebulin related anchoring protein) | no change | no change | -0.36 | -0.38 | inactive
CLEC2B (C-type lectin domain family 2 member B) | no change | no change | 0.34 | -0.84 | inactive
MGAT5B | no change | no change | 0.58 | 1.57 | inactive
F13A1 (coagulation factor XIII A chain) | no change | no change | 0.31 | -0.54 | inactive
EFNB1 (ephrin B1) | no change | no change | -3.62 | 0.11 | inactive
MORC2 (MORC family CW-type zinc finger 2) | no change | no change | 1.67 | 0.51 | inactive
SERPINA13P (serpin family A member 13, pseudogene) | no change | no change | -0.3 | -0.2 | inactive
SLF2 (SMC5/6 complex localization factor 2) | no change | no change | -0.84 | 3.34 | inactive
STEAP3 (STEAP3 metalloreductase) | no change | no change | -0.14 | -0.66 | inactive
NUDT11 (nudix hydrolase 11) | no change | no change | -2.56 | 1.9 | inactive
OR10H1 (olfactory receptor family 10 subfamily H member 1) | no change | no change | -0.13 | 2.29 | inactive
HTR6 (5-hydroxytryptamine receptor 6) | no change | no change | 0.65 | 0.31 | inactive
ARHGDIG (Rho GDP dissociation inhibitor gamma) | no change | no change | 1.6 | 0.84 | inactive
FBL (fibrillarin rRNA 2'-O-methyltransferase) | no change | no change | -2.48 | -0.1 | inactive
KRT86 (keratin 86) | no change | no change | 0.28 | 1.47 | inactive
NALF2 (NALCN channel auxiliary factor 2) | no change | no change | 0.78 | -0.98 | inactive
PLEKHM1P1 | no change | no change | -0.43 | 0.22 | inactive
